{"source": "paper PMC12372870", "binders": {"B1": {"name": "endogenous SFPQ (protein, UniProt Q8VIJ6 1-699)", "chain": "MSRDRFRSRGGGGGGFHRRGGGGGRGGLHDFRSPPPGMGLNQNRGPMGPGPGGPKPPLPPPPPHQQQQQPPPQQPPPQQPPPHQQPPPHQPPHQQPPPPPQESKPVVPQGPGSAPGVSSAPPPAVSAPPANPPTTGAPPGPGPTPTPPPAVPSTAPGPPPPSTPSSGVSTTPPQTGGPPPPPAGGAGPGPKPGPGPGGPKGGKMPGGPKPGGGPGMGAPGGHPKPPHRGGGEPRGGRQHHAPYHQQHHQGPPPGGPGPRTEEKISDSEGFKANLSLLRRPGEKTYTQRCRLFVGNLPADITEDEFKRLFAKYGEPGEVFINKGKGFGFIKLESRALAEIAKAELDDTPMRGRQLRVRFATHAAALSVRNLSPYVSNELLEEAFSQFGPIERAVVIVDDRGRSTGKGIVEFASKPAARKAFERCSEGVFLLTTTPRPVIVEPLEQLDDEDGLPEKLAQKNPMYQKERETPPRFAQHGTFEYEYSQRWKSLDEMEKQQREQVEKNMKDAKDKLESEMEDAYHEHQANLLRQDLMRRQEELRRMEELHSQEMQKRKEMQLRQEEERRRREEEMMIRQREMEEQMRRQREESYSRMGYMDPRERDMRMGGGGTMNMGDPYGSGGQKFPPLGGGGGIGYEANPGVPPATMSGSMMGSDMRTERFGQGGAGPVGGQGPRGMGPGTPAGYGRGREEYEGPNKKPRF"}}, "target": "T1, HA-tagged altSFPQ (alternative SFPQ isoform lacking the C-terminal nuclear localization signal) (human) (UniProt P23246)", "T1 sequence": "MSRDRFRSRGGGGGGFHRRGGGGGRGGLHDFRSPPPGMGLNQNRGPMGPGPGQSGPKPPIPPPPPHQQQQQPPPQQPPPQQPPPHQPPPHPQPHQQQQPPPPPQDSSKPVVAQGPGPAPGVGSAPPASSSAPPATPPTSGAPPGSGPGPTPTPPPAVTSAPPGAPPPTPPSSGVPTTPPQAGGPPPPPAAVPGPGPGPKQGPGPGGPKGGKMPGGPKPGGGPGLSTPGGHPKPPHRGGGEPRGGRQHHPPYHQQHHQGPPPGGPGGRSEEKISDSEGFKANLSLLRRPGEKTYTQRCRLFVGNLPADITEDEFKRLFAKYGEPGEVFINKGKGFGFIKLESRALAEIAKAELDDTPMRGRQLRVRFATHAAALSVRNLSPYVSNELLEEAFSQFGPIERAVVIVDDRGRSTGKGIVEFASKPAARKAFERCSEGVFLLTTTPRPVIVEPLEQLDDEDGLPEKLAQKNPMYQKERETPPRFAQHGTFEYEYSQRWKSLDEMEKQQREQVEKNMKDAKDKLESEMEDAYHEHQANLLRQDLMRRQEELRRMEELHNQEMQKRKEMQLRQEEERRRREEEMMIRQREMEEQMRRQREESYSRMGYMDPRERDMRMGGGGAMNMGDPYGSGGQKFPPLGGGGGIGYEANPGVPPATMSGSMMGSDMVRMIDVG", "assay": "affinity purification with mass spectrometry; anti-HA magnetic beads on lysates of N2A cells expressing HA-SFPQ variants, four replicates; on-bead trypsin digestion, TMTpro labelling, LC-MS; enrichment over empty vector", "note": "Results are given in words; binding and its absence hold for the method and conditions named. In cells and extracts the contact can be indirect. A yes stands for co-enrichment or nearness to the bait. Other partners may have been found. Tags and fused reporters may be left off the sequences shown.", "data": [{"binder": "B1", "values": [{"measurement": "binding", "value": "binds"}]}]}
